# At least one structure is not confirmed: it was looked up by name or label, or the drawing left a doubt.
# Experiment: In vitro elution of the API from implants in an elution bath of 0.9% saline at 37° C., exchanges analyzed by HPLC
# Format: physicochemical
# Protocol: The testing method set forth in the examples to determine the elution rates for the respective actives included placing the implants in an elution bath consisting of 50 mL 0.9% saline at 37° C. Weekly exchanges of the elution media were analyzed by HPLC for the durations given.
# A drug implant was manufactured as described in Example 1 using an aliphatic, polyether-based polyurethane (TECOFLEX® EG-93A polyurethane) as the tubing material. […] Nine pellets of the anastrozole blend were then placed inside the tubing. A total of about 370 mg anastrozole per implant was used. The implants were sterilized by gamma irradiation and placed in an elution bath of 0.9% saline (50 mL) at 37° C. Regular exchanges of the elution media were analyzed by HPLC for over 400 days.
# Implants D and E were then tested for in vitro elution, as described in Example 2. […]
# Drug containing pellets were manufactured as described in Example 1, and the polymeric sorption enhancer croscarmellose sodium was added to the drug blend. […] Weekly exchanges of the elution media were analyzed by HPLC for 13 weeks.
# Drug containing pellets were manufactured as described in Example 1, and the polymeric sorption enhancer croscarmellose sodium was added to the drug blend. […] Weekly exchanges of the elution media were analyzed by HPLC for 11 weeks. […]
structure (smiles),measurement,setting,value
"CCCCCCCCc1ccc(CCC(N)(CO)CO)cc1 [fingolimod free base, fingolimod]",elution rates in vitro in comparison to the salt form,free base vs HCl or tartrate salt,higher
same,drug release from the implants compared to fingolimod hydrochloride,"same polymers (TECOFLEX EG-80A or EG-93A), 800 mL saline",about 7 fold
